According to the supplement of paper PMC6078165:
Values are relative to the signal before dosing, not to a vehicle control; the signal also falls without drug.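 Fibroblast labels name human fibroblasts: mostly primary ones from tissues such as uterus (C12385, HUF), lung (H6013), bone (Hs27A), adrenal (HADF) and skin (WS1), plus mammary HMF and breast cancer-associated Hs343T. The cancer cells are basal-like or mesenchymal-like triple-negative breast cancer lines. The paper calls a changed response a hit when it shifts by more than 3x the replicate standard deviation. The tissue of the other fibroblasts is not given here.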

Test system: MDAMB436
Test: relative JC-1 red fluorescence (viability) vs pre-drug, coculture with fibroblast (fraction); higher = more viable cancer cells
Experimental: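 JC-1 labelled TNBC cells cocultured 1:1 (1,500 cells each) with CellTrace Violet stained primary or stromal fibroblasts in 384-well plates in FluoroBrite medium, treated with one of 42 anticancer drugs at 0.1, 1, 10 or 100 uM. JC-1 red fluorescence (mitochondrial integrity in cancer cells only) was read by plate reader every 8 h for 72 h. Values are normalised to each well's pre-drug value. The stock of one drug was tenfold lower, so its dose labels may be too high.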

CCC1=C[C@@H]2CN(C1)Cc1c([nH]c3ccccc13)[C@@](C(=O)OC)(c1cc3c(cc1OC)N(C)[C@H]1[C@@](O)(C(=O)OC)[C@H](OC(C)=O)[C@]4(CC)C=CCN5CC[C@]31[C@@H]54)C2 [Vinorelbine]
relative JC-1 red fluorescence
Conditions	8 h	16 h	24 h	32 h	40 h	48 h	56 h	64 h	72 h
0.1 µM, coculture fibroblast: C12385	0.8364	0.699	0.7025	0.6227	0.5848	0.5608	0.54983	0.537	0.546
0.1 µM, coculture fibroblast: H6013	0.906	0.806	0.81	0.823	0.842	0.877	0.868	0.875	0.857
0.1 µM, coculture fibroblast: H6019	0.765	0.713	0.712	0.667	0.659	0.655	0.643	0.64	0.64
0.1 µM, coculture fibroblast: H6076	0.767	0.7304	0.74	0.717	0.7241	0.719	0.76	0.769	0.788
0.1 µM, coculture fibroblast: H6231	0.8007	0.723	0.704	0.64	0.62	0.592	0.585	0.565	0.549
0.1 µM, coculture fibroblast: HADF	0.878	0.773	0.754	0.7241	0.714	0.719	0.666	0.665	0.637
0.1 µM, coculture fibroblast: HCFa	0.871	0.758	0.731	0.693	0.663	0.67	0.612	0.606	0.546
0.1 µM, coculture fibroblast: HCPF	0.818	0.743	0.737	0.684	0.673	0.643	0.627	0.621	0.609
0.1 µM, coculture fibroblast: HHSteC	0.901	0.868	0.882	0.877	0.808	0.792	0.854	0.841	0.798
0.1 µM, coculture fibroblast: HMF	0.8053	0.705	0.691	0.647	0.64	0.602	0.6132	0.588	0.5863
0.1 µM, coculture fibroblast: HPFa	0.922	0.8634	0.8032	0.7681	0.7578	0.7706	0.7069	0.695	0.651
0.1 µM, coculture fibroblast: HUF	0.886	0.777	0.753	0.678	0.626	0.592	0.563	0.542	0.543
0.1 µM, coculture fibroblast: Hs5	0.811	0.712	0.716	0.67	0.669	0.634	0.653	0.629	0.642
0.1 µM, coculture fibroblast: Hs27A	0.884	0.845	0.79	0.777	0.767	0.832	0.773	0.776	0.711
0.1 µM, coculture fibroblast: Hs343T	0.787	0.719	0.694	0.6576	0.634	0.5962	0.5857	0.575	0.566
0.1 µM, coculture fibroblast: WS1	0.838	0.715	0.715	0.634	0.605	0.587	0.569	0.5629	0.5664
1 µM, coculture fibroblast: C12385	0.8349	0.7278	0.726	0.663	0.632	0.605	0.577	0.565	0.558
1 µM, coculture fibroblast: H6013	0.895	0.897	0.882	0.892	0.869	0.803	0.856	0.831	0.787
1 µM, coculture fibroblast: H6019	0.792	0.7634	0.783	0.73	0.727	0.718	0.701	0.691	0.686
1 µM, coculture fibroblast: H6076	0.82	0.78	0.785	0.742	0.715	0.68	0.689	0.681	0.673
1 µM, coculture fibroblast: H6231	0.838	0.758	0.718	0.642	0.606	0.57	0.556	0.5282	0.5
1 µM, coculture fibroblast: HADF	0.88	0.805	0.802	0.766	0.755	0.772	0.705	0.6986	0.643
1 µM, coculture fibroblast: HCFa	0.8908	0.79	0.7568	0.728	0.706	0.706	0.64	0.628	0.571
1 µM, coculture fibroblast: HCPF	0.915	0.834	0.8	0.737	0.692	0.644	0.608	0.585	0.5522
1 µM, coculture fibroblast: HHSteC	0.861	0.828	0.805	0.768	0.768	0.777	0.717	0.697	0.64
1 µM, coculture fibroblast: HMF	0.8551	0.803	0.803	0.749	0.716	0.671	0.66504	0.63879	0.6158
1 µM, coculture fibroblast: HPFa	0.949	0.891	0.8588	0.8198	0.82	0.8241	0.7594	0.7381	0.685
1 µM, coculture fibroblast: HUF	0.902	0.8241	0.8043	0.728	0.675	0.6404	0.607	0.584	0.57
1 µM, coculture fibroblast: Hs5	0.806	0.761	0.7638	0.7044	0.695	0.655	0.655	0.632	0.623
1 µM, coculture fibroblast: Hs27A	0.844	0.829	0.853	0.825	0.838	0.846	0.746	0.789	0.68
1 µM, coculture fibroblast: Hs343T	0.806	0.76	0.7566	0.707	0.672	0.637	0.615	0.596	0.583
1 µM, coculture fibroblast: WS1	0.837	0.765	0.773	0.699	0.658	0.627	0.601	0.574	0.556
10 µM, coculture fibroblast: C12385	0.815	0.778	0.769	0.709	0.671	0.6461	0.606	0.5732	0.552
10 µM, coculture fibroblast: H6013	0.844	0.815	0.819	0.82	0.791	0.799	0.7458	0.7096	0.651
10 µM, coculture fibroblast: H6019	0.799	0.792	0.787	0.736	0.716	0.691	0.656	0.6169	0.593
10 µM, coculture fibroblast: H6076	0.762	0.7257	0.726	0.657	0.622	0.58	0.546	0.518	0.495
10 µM, coculture fibroblast: H6231	0.857	0.816	0.781	0.7048	0.648	0.594	0.551	0.504	0.473
10 µM, coculture fibroblast: HADF	0.898	0.917	0.923	0.929	0.909	0.909	0.842	0.805	0.746
10 µM, coculture fibroblast: HCFa	0.832	0.842	0.858	0.852	0.846	0.862	0.798	0.791	0.731
10 µM, coculture fibroblast: HCPF	0.844	0.792	0.774	0.698	0.631	0.579	0.52	0.485	0.44694
10 µM, coculture fibroblast: HHSteC	0.829	0.818	0.7933	0.7752	0.7613	0.757	0.69	0.662	0.613
10 µM, coculture fibroblast: HMF	0.845	0.813	0.795	0.75	0.7002	0.6405	0.5889	0.529	0.495
10 µM, coculture fibroblast: HPFa	0.871	0.839	0.84	0.798	0.799	0.795	0.736	0.718	0.667
10 µM, coculture fibroblast: HUF	0.873	0.829	0.827	0.768	0.714	0.663	0.629	0.6	0.587
10 µM, coculture fibroblast: Hs5	0.82	0.751	0.751	0.685	0.626	0.5667	0.542	0.483	0.46
10 µM, coculture fibroblast: Hs27A	0.895	0.893	0.7809	0.733	0.743	0.756	0.773	0.662	0.758
10 µM, coculture fibroblast: Hs343T	0.825	0.832	0.825	0.793	0.752	0.707	0.66431	0.6247	0.593
10 µM, coculture fibroblast: WS1	0.832	0.794	0.776	0.719	0.702	0.67	0.634	0.59	0.561
100 µM, coculture fibroblast: C12385	0.782	0.768	0.672	0.453	0.341	0.295	0.25	0.216	0.195
100 µM, coculture fibroblast: H6013	0.879	0.777	0.6449	0.519	0.416	0.398	0.328	0.289	0.239
100 µM, coculture fibroblast: H6019	0.86	0.822	0.742	0.595	0.504	0.441	0.388	0.345	0.306
100 µM, coculture fibroblast: H6076	0.948	0.8393	0.737	0.59	0.429	0.324	0.254	0.208	0.167
100 µM, coculture fibroblast: H6231	0.947	0.869	0.762	0.597	0.429	0.326	0.26	0.216	0.171
100 µM, coculture fibroblast: HADF	0.893	0.77	0.778	0.625	0.541	0.533	0.446	0.418	0.356
100 µM, coculture fibroblast: HCFa	0.833	0.817	0.727	0.555	0.459	0.444	0.354	0.331	0.261
100 µM, coculture fibroblast: HCPF	0.714	0.733	0.94	0.836	0.636	0.487	0.351	0.287	0.225
100 µM, coculture fibroblast: HHSteC	0.799	0.758	0.623	0.478	0.4155	0.3985	0.326	0.29	0.234
100 µM, coculture fibroblast: HMF	0.956	0.865	0.722	0.589	0.44	0.31	0.22	0.151	0.109
100 µM, coculture fibroblast: HPFa	0.888	0.832	0.862	0.723	0.756	0.735	0.629	0.594	0.514
100 µM, coculture fibroblast: HUF	0.867	0.826	0.661	0.465	0.359	0.305	0.274	0.238	0.218
100 µM, coculture fibroblast: Hs5	0.941	0.911	0.819	0.636	0.492	0.364	0.286	0.231	0.181
100 µM, coculture fibroblast: Hs27A	0.82	0.762	0.631	0.502	0.459	0.486	0.373	0.341	0.268
100 µM, coculture fibroblast: Hs343T	0.943	0.891	0.806	0.664	0.516	0.399	0.301	0.249	0.207
100 µM, coculture fibroblast: WS1	0.8054	0.759	0.669	0.52	0.432	0.387	0.338	0.298	0.27
